According to the supplement of paper PMC3682954:
Where “and” joins values, the source holds several entries; their conditions need not be identical. Identical values can stand only once. Counter-ions that a name gives are not always drawn. ± gives the standard deviation of the averaged measurements. The list shows a part of the results. Many values rest on one well or one pass, so single values are uncertain.

Tested on: RAW 264.7
Test: cell viability (MTT) relative to vehicle control; higher = more viable cells
Details: stimulus: HMGB1 5 ug/ml, 18 h
[1] = compound concentration: 1 ug/ml

Row | Structure (SMILES) | cell viability (compound concentration: 3 uM) | cell viability [1] [%]
1 | C=C(C)[C@@H]1[C@H]2OC(=O)[C@@H]1[C@]1(O)C[C@H]3OC34C(=O)O[C@H]2[C@@]41C.CC(C)(O)[C@@H]1[C@H]2OC(=O)[C@@H]1[C@]1(O)C[C@H]3OC34C(=O)O[C@H]2[C@@]41C (some centres undefined) [Picrotoxin] | 101% | 
2 | CC(=O)OCC1=C(C(=O)O)N2C(=O)[C@@H](N)[C@H]2SC1 [Cephalosporanic acid, 7-amino] | 113% | 
3 | C/C=C(/C)C(=O)O[C@H]1CC[C@@]2(C)[C@@H]3CC[C@H]4[C@]5(O)C[C@H](O)[C@@]6(O)[C@@H](CN7C[C@@H](C)CC[C@H]7[C@@]6(C)O)[C@]5(O)C[C@]42O[C@]13O | 95.7% | 
4 | CO[C@]12C[C@@H](COC(=O)c3cncc(Br)c3)CN(C)[C@@H]1Cc1cn(C)c3cccc2c13 [Nicergoline] | 103 ± 2.5% | 
5 | CO[C@]12C[C@@H](COC(=O)c3cncc(Br)c3)CN(C)[C@@H]1Cc1cn(C)c3cccc2c13 | 109% | 
6 | CO[C@]12C[C@@H](COC(=O)c3cncc(Br)c3)CN(C)[C@@H]1Cc1cn(C)c3cccc2c13 [Nicergoline,] |  | 99.9
7 | CN(C)C(=S)SSC(=S)N(C)C | 95.7% | 
8 | CC(C)C[C@H](CN)CC(=O)O | 115% | 
9 | O=CN1CCCC[C@@H]1[C@@H]1CC[C@@H]2CCCCN2C1 [Leontiformine HBr] |  | 93.8
10 | CC1(C(=O)O)C2CCC(O2)C1(C)C(=O)O (centres undefined) [Cantharidic Acid] | 37.1% | 
11 | CC(C)(C)NCC(O)c1ccccc1Cl (centres undefined) | 111% | 
12 | CC(C)(C)NCC(O)c1ccccc1Cl (centres undefined) [Tulobuterol hydrochloride] | 110% | 
13 | CC(C)(C)NCC(O)c1ccccc1Cl (centres undefined) [Tulobuterol] | 94.7 ± 4% | 
14 | C[C@]12Cc3c[nH]nc3C[C@@H]1CC[C@@H]1[C@@H]2CC[C@@]2(C)[C@H]1CC[C@]2(C)O [Stanozolol] | 104 ± 18% | 
15 | c1ccc(C2(c3ccccc3)CC2C2=NCCN2)cc1 (centres undefined) [Cibenzoline succinate] | 95.9% | 
16 | CCCN(CCC)C1CCc2ccc(O)cc2C1 (stereo not drawn) [R-(+)-7-Hydroxy-DPAT hydrobromide] | 101% | 
17 | C/C=C1\C[C@@H](C)[C@](O)(CO)C(=O)OCC2=CCN3CC[C@@H](OC1=O)[C@@H]23 [Retrorsine] |  | 94.2
18 | CCC(N)C(O)c1ccc(O)c(O)c1 (centres undefined) | 112% | 
19 | CN1C[C@H](CO)C=C2c3cccc4[nH]cc(c34)C[C@H]21 [Lysergol] |  | 92.6
20 | CC(N)Cc1c[nH]c2ccc(O)cc12 (stereo not drawn) [alpha-Methyl-5-hydroxytryptamine maleate] | 113% | 
21 | CN(N=O)c1cc(O)ccc1O [Dephostatin] | 94.8% | 
22 | C[C@H]1CCC[C@H](O)CCCCCc2cc(O)cc(O)c2C(=O)O1 | 100% | 
23 | COc1ccc(CCN2CCC(Nc3nc4ccccc4n3Cc3ccc(F)cc3)CC2)cc1 [Astemizole] | 73 ± 43% | 
24 | COc1ccc(CCN2CCC(Nc3nc4ccccc4n3Cc3ccc(F)cc3)CC2)cc1 | 59.2% | 
25 | CC(=O)O[C@H]1C[C@H](O[C@H]2[C@@H](O)C[C@H](O[C@H]3[C@@H](O)C[C@H](O[C@H]4CC[C@@]5(C)[C@H](CC[C@@H]6[C@@H]5C[C@@H](O)[C@]5(C)[C@@H](C7=CC(=O)OC7)CC[C@]65O)C4)O[C@@H]3C)O[C@@H]2C)O[C@H](C)[C@H]1O[C@@H]1O[C@H](CO)[C@@H](O)[C@H](O)[C@H]1O | 119% | 
26 | CC(=O)O[C@H]1C[C@H](O[C@H]2[C@@H](O)C[C@H](O[C@H]3[C@@H](O)C[C@H](O[C@H]4CC[C@@]5(C)[C@H](CC[C@@H]6[C@@H]5C[C@@H](O)[C@]5(C)[C@@H](C7=CC(=O)OC7)CC[C@]65O)C4)O[C@@H]3C)O[C@@H]2C)O[C@H](C)[C@H]1O[C@@H]1O[C@H](CO)[C@@H](O)[C@H](O)[C@H]1O [Lanatoside C] | 110% | 

Row | Structure (SMILES) | cell viability (compound concentration: 3 uM) | cell viability [1] [%]
27 | CC(=O)O[C@H]1C[C@H](O[C@H]2[C@@H](O)C[C@H](O[C@H]3[C@@H](O)C[C@H](O[C@H]4CC[C@@]5(C)[C@H](CC[C@@H]6[C@@H]5C[C@@H](O)[C@]5(C)[C@@H](C7=CC(=O)OC7)CC[C@]65O)C4)O[C@@H]3C)O[C@@H]2C)O[C@H](C)[C@H]1O[C@@H]1O[C@H](CO)[C@@H](O)[C@H](O)[C@H]1O [lanatoside C] |  | 97.1
28 | C[C@]12N[C@H](Cc3ccccc31)c1ccccc12 [Dizocilpine maleate] | 90.6% | 
29 | C[N+]1([O-])[C@@H]2C[C@@H](OC(=O)[C@H](CO)c3ccccc3)C[C@H]1[C@@H]1O[C@@H]12 (some centres undefined) [Scopolamin-N-oxide hydrobromide] | 132% | 
30 | NCCc1ccccn1 | 97.2% | 
31 | CCN(CC)C(C)C(=O)c1ccccc1 (centres undefined) [Amfepramone hydrochloride] | 96% | 
32 | O[C@@H]1CCCC[C@H]1N1CCC(c2ccccc2)CC1 [L(-)-vesamicol hydrochloride] | 93.4% | 
33 | O=C1CCCN1CC#CCN1CCCC1 [Oxotremorine sesquifumarate salt] | 100% | 
34 | O=C1CCCN1CC#CCN1CCCC1 [Oxotremorine] | 110% | 
35 | c1cncc([C@@H]2CCCN2)c1 [Nornicotine] | 98.4% | 
36 | CC1(C)C(C=C(Cl)Cl)C1C(=O)OC(C#N)c1cccc(Oc2ccccc2)c1 (centres undefined) | 111% | 
37 | Oc1cc(Cl)ccc1Oc1ccc(Cl)cc1Cl | 101% | 
38 | Oc1cc(Cl)ccc1Oc1ccc(Cl)cc1Cl [Triclosan] | 102% | 
39 | COc1ccc(Cc2nccc3cc(OC)c(OC)cc23)cc1OC | 108% | 
40 | COc1ccc(Cc2nccc3cc(OC)c(OC)cc23)cc1OC [Papaverine hydrochloride] | 112 ± 2.7% | 
41 | NCCCP(=O)(O)O [3-Aminopropylphosphonic acid] | 103% | 
42 | CNCCc1c[nH]c2ccc(O)cc12 [N-omega-Methyl-5-hydroxytryptamine oxalate salt] | 108% | 
43 | CNC1=Nc2ccc(Cl)cc2C(c2ccccc2)=[N+]([O-])C1 | 103 ± 3.2% | 
44 | CCC1(CC)C(=O)C=CNC1=O | 113% | 
45 | CCC1(CC)C(=O)C=CNC1=O [Pyrithyldione] | 97.9% | 
46 | COc1cc2c(c(OC)c1OC)-c1ccc(=O)c(O)cc1[C@@H](NC(C)=O)CC2 [Colchiceine] |  | 83.5
47 | NNC(=O)c1ccc(O)cc1 [4-Hydroxybenzhydrazide] | 97.1% | 
48 | C=C(C)[C@H]1Cc2c(ccc3c2O[C@@H]2COc4cc(OC)c(OC)cc4[C@@H]2C3=O)O1 [Rotenone] | 98.5% | 65.5
49 | C=C(C)[C@H]1Cc2c(ccc3c2O[C@@H]2COc4cc(OC)c(OC)cc4[C@@H]2C3=O)O1 | 68.9% | 
50 | COC(=O)C1=CCCN(C)C1 | 102% | 
51 | COC(=O)C1=CCCN(C)C1 [Arecoline hydrobromide] | 118 ± 20% | 
52 | N[C@@H](CCl)C(=O)O [beta-Chloro-L-alanine hydrochloride] | 108% | 

Row | Structure (SMILES) | cell viability (compound concentration: 3 uM) | cell viability [1] [%]
53 | Fc1ccc(C(OCCN2CCN(CCCc3ccccc3)CC2)c2ccc(F)cc2)cc1 | 100% and 90.7% | 
54 | CC(C)(C)NCC(O)c1cc(Cl)c(N)c(Cl)c1 (centres undefined) [Clenbuterol] | 103% | 
55 | CC(C)(C)NCC(O)c1cc(Cl)c(N)c(Cl)c1 (centres undefined) | 111% | 
56 | CC(C)(C)NCC(O)c1cc(Cl)c(N)c(Cl)c1 (centres undefined) [Clenbuterol hydrochloride] | 98.2% | 
57 | COc1cc2c(cc1OC)[C@@]13CCN4CC5=CCO[C@H]6CC(=O)N2[C@H]1[C@H]6[C@H]5C[C@H]43 [Brucine] | 92.1% | 
58 | COc1cc2c(cc1OC)[C@@]13CCN4CC5=CCO[C@H]6CC(=O)N2[C@H]1[C@H]6[C@H]5C[C@H]43 | 99.9 ± 7.9% | 
59 | COc1cc2c(cc1OC)[C@H](C)NCC2 [Salsolidine] |  | 95.3
60 | O=C(NC(=O)c1c(F)cccc1F)Nc1cc(Cl)c(OC(F)(F)C(F)C(F)(F)F)cc1Cl (centres undefined) | 107% | 
61 | NNC(N)=O [Semicarbazide hydrochloride] | 118% | 
62 | O=C[C@H](Cl)[C@@H](O)[C@H](O)[C@H](O)CO [2-Chloro-2-deoxy-D-glucose] | 113% | 
63 | CN(C(=O)Cc1ccc(Cl)c(Cl)c1)C(CN1CCCC1)c1cccc(OCC(=O)O)c1 (centres undefined) [ICI 204,448 hydrochloride] | 95.9% | 
64 | NCCc1ccc(O)cc1 [4-Hydroxyphenethylamine hydrochloride] | 115% | 
65 | CN(C)C(=O)Oc1cc(OC(=O)N(C)C)cc(C(O)CNC(C)(C)C)c1 (centres undefined) | 111% | 
66 | CN(C)C(=O)Oc1cc(OC(=O)N(C)C)cc(C(O)CNC(C)(C)C)c1 (centres undefined) [Bambuterol] | 106% | 
67 | CN(C)C(=O)Oc1cc(OC(=O)N(C)C)cc(C(O)CNC(C)(C)C)c1 (centres undefined) [Bambuterol hydrochloride] | 87.5% | 
68 | CCn1cc(C(=O)O)c(=O)c2cc3c(cc21)OCO3 | 106% | 
69 | CCn1cc(C(=O)O)c(=O)c2cc3c(cc21)OCO3 [Oxolinic acid] | 105 ± 3.3% | 
70 | C[N+]1(C)[C@@H]2C[C@@H](OC(=O)[C@H](CO)c3ccccc3)C[C@H]1[C@@H]1O[C@@H]12 | 111% | 
71 | C[N+]1(C)[C@@H]2C[C@@H](OC(=O)[C@H](CO)c3ccccc3)C[C@H]1[C@@H]1O[C@@H]12 [(-)-Scopolamine methyl bromide] | 108% | 
72 | C[C@]12CC[C@H](O)C[C@@H]1CC[C@@H]1[C@@H]2CC[C@]2(C)C(=O)CC[C@@H]12 [Epiandrosterone] | 121% | 102
73 | C[C@H](Cc1ccc2c(c1)OC(C(=O)O)(C(=O)O)O2)NC[C@H](O)c1cccc(Cl)c1 | 102% | 
74 | CCC1(c2ccc(N)cc2)CCC(=O)NC1=O (centres undefined) | 100.4 ± 0.86% | 
75 | CCC1(c2ccc(N)cc2)CCC(=O)NC1=O (centres undefined) [Glutethimide, para-amino] | 96.1% | 
76 | C[N+]1(C)CCN(c2ccccc2)CC1 | 101% | 
77 | C[N+]1(C)CCN(c2ccccc2)CC1 [1,1-Dimethyl-4-phenyl-piperazinium iodide] | 105% | 
